PubChem BioAssay AID1259254, NCATS – 2017
The deposit covers about 59,000 reagents; this is a part drawn at random. About 1,550 of all reagents (2.6%) count as active. 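G2 share is only a proxy for re-replication; each gene was hit by three separate siRNAs, and active genes were retested.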 Reagents against one gene are numbered here. Further read-outs or replicates are left out here. Not given: the amount of reagent.

Assay: 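Genome-wide screen for genes that prevent DNA re-replication in cancer cells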 (primary screen)
System: human HCT116 colorectal cancer cells
Knock-down reagent: single siRNA against human genes
Time to read-out: 3 days
Detection: 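Nuclei stained with Hoechst and imaged; cell-cycle phase assigned by DNA content; G2 share scaled per plate, non-targeting siRNA 0%, GMNN siRNA 100%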
Scale: G2 robust z-score: higher = more G2 cells, more excess DNA replication
Hit rule: 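Active siRNAs have a G2 robust z of 5 or more median absolute deviations over the median, which in these data means about 38% or higher of GMNN control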

G2 robust z-score, by gene and reagent
EVX1 (even-skipped homeobox 1): #1 0.537 inactive; #2 -0.0316 inactive; #3 -0.496 inactive
ZNF512 (zinc finger protein 512): #1 0.237 inactive; #2 0.284 inactive; #3 -0.642 inactive
USP17L9P: #1 -0.77 inactive; #2 -0.783 inactive; #3 0.238 inactive
LIMS2 (LIM zinc finger domain containing 2): #1 1.25 inactive; #2 -0.33 inactive; #3 -0.601 inactive
CERS2 (ceramide synthase 2): #1 2.5 inactive; #2 3.91 inactive; #3 4.3 inactive
GASK1A (golgi associated kinase 1A): #1 1 inactive; #2 0.288 inactive; #3 -0.264 inactive
C1orf146 (chromosome 1 open reading frame 146): #1 1.19 inactive; #2 -0.282 inactive; #3 0.239 inactive

An excerpt taken from the entries so far, for reference:
G2 robust z-score, by gene and reagent
ZNF512 (zinc finger protein 512): #3 -0.642 inactive
USP17L9P: #1 -0.77 inactive; #2 -0.783 inactive; #3 0.238 inactive
LIMS2 (LIM zinc finger domain containing 2): #1 1.25 inactive; #2 -0.33 inactive; #3 -0.601 inactive

Continued:
G2 robust z-score, by gene and reagent
METTL1 (methyltransferase 1, tRNA methylguanosine): #1 -1.01 inactive; #2 1.09 inactive; #3 -0.467 inactive
TCP1 (t-complex 1): #1 0.61 inactive; #2 1.01 inactive; #3 0.17 inactive
SNX8 (sorting nexin 8): #1 1.04 inactive; #2 -1.4 inactive; #3 6.27 active
COLQ: #1 0.57 inactive; #2 0.919 inactive; #3 -0.0573 inactive
CEP120 (centrosomal protein 120): #1 0.0524 inactive; #2 0.516 inactive; #3 1.08 inactive
ZC2HC1B (zinc finger C2HC-type containing 1B): #1 0.948 inactive; #2 -0.804 inactive; #3 0.0733 inactive
SCARB2 (scavenger receptor class B member 2): #1 2.08 inactive; #2 -1.6 inactive; #3 -1.26 inactive
RPL18P4 (ribosomal protein L18 pseudogene 4): #1 2.67 inactive; #2 -0.389 inactive; #3 4.21 inactive; #4 0.354 inactive; #5 -0.613 inactive; #6 -1.02 inactive
